Experimental data published in patent publication US20040248837A1, “Methods of treating pulmonary fibrotic disorders” (priority 2002, published 2004).
At least one structure is not confirmed: it was looked up by name or label, or the drawing left a doubt.

System: ITGβ6
Experiment: ITGβ6 (β6 integrin) gene transcription in lung tissue, RT-PCR
Format: in vivo, C57BL/6 mice
Details: B6 mice, i.v., 24 hrs; Pam3Cys 25 μg, polyI:C 25 μg, LPS 5 μg, TOG 2 mg, R848 18 μg, ISS 20 μg
Procedure: Twenty μg ISS was injected intravenously (i.v.) into C57BL/6 mice. At 0 hours, 2 hours, 4 hours, 8 hours, 16 hours, and 24 hours after injection, mice were killed and total RNA was isolated from lung. Transcription levels of IGFβ6 (β6 integrin) was analyzed by reverse transcription-polymerase chain reaction (RT-PCR). TNFα, IDO (2,3-indoleaminedioxygenase) and TGFβ1 were used as controls. […] Transcription of the other subunit of ITGαvβ6 (or αvβ6 integrin), i.e., ITGαv, was also analyzed by RT-PCR.
The long-term effect of ISS on gene expression in lung tissue was investigated. Twenty μg ISS was injected i.v. into C57 BL/6 mice. At 0 days, 1 day, 2 days, 3 days, 4 days, and 5 days post injection, mice were killed and total RNA was isolated from lung tissue. Transcription levels were analyzed by RT-PCR. […] The suppression of TGF-β activity was observed indirectly by the induction of MMP-12 (elastase) gene. Under normal conditions, MMP-12 expression is suppressed by TGF-β. […] In contrast, no change in mRNA levels of MMP-9 (gelatinase) was observed.
The kinetics of suppression of gene expression by ISS was analyzed. […]
Suppression of ITGβ6 gene transcription in lung tissue by a variety of TLR ligands was examined. […] After 24 hrs, mice were sacrificed and total RNA was isolated form lung tissue, and the level of ITGβ6 gene transcription in lung tissue was analyzed by RT-PCR. […]

CCOCc1nc2c(N)nc3ccccc3c2n1CC(C)(C)O [R848]
ITGβ6 gene transcription in lung tissue: inhibited
